Laboratory results from the supplement of paper PMC10849652.
The list shows a part of the results.

Chains of the proteins cited; added tags and fusions are not shown. Lines headed by an entry give the natural chain unless they say otherwise; changes in a name come on top.
UniProt Q9Y6I3: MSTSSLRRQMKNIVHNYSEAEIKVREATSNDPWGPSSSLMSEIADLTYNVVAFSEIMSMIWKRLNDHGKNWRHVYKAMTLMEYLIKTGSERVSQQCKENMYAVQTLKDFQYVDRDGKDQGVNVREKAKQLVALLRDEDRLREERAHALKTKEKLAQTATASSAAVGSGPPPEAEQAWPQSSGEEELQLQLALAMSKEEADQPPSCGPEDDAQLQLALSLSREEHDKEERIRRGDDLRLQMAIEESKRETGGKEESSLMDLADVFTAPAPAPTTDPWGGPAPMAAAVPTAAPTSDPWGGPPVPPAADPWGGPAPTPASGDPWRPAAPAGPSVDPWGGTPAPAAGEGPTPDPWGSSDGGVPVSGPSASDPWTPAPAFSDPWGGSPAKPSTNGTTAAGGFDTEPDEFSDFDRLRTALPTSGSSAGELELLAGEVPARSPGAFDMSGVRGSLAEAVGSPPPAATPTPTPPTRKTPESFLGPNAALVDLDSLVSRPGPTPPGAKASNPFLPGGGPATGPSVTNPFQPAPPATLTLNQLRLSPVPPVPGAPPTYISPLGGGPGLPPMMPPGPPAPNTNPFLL
UniProt Q9P0I2: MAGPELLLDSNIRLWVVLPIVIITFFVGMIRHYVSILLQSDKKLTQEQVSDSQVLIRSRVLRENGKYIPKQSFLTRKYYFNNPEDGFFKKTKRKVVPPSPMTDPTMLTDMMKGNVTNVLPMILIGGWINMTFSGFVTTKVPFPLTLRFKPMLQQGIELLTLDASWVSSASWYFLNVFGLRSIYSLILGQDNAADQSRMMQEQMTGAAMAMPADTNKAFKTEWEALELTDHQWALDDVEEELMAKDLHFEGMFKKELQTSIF
UniProt Q9UBQ5, whole entry, looked up: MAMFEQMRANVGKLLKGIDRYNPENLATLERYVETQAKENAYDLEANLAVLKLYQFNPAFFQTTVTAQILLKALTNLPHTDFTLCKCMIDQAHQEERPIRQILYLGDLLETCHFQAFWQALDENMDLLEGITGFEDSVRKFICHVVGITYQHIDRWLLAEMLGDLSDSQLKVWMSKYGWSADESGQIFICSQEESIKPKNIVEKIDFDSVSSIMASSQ
UniProt Q8N766: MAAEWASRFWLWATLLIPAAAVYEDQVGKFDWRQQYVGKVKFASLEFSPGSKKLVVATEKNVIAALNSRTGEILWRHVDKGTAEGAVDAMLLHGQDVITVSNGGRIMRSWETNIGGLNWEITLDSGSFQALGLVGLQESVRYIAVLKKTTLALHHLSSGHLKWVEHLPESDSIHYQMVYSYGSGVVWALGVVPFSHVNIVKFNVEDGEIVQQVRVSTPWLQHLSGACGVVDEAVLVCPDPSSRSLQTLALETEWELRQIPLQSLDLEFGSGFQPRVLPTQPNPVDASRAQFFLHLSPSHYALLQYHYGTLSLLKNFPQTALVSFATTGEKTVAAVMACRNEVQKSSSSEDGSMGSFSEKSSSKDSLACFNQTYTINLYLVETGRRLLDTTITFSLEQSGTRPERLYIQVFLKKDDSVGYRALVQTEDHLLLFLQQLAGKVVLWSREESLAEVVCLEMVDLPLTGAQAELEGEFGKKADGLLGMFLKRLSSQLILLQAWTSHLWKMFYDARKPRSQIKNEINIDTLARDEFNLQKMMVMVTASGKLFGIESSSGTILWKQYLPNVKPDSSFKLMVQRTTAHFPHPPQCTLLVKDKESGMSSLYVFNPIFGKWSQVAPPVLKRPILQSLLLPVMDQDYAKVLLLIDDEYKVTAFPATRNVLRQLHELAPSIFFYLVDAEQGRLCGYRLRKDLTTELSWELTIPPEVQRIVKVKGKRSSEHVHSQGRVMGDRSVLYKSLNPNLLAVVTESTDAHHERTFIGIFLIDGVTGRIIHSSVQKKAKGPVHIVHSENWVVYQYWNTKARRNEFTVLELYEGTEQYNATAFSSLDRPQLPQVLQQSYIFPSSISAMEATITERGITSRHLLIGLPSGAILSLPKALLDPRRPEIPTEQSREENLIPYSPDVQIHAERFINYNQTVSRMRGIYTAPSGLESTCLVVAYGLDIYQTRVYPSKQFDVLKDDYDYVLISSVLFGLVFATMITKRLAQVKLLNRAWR
UniProt Q9UI10, whole entry, looked up: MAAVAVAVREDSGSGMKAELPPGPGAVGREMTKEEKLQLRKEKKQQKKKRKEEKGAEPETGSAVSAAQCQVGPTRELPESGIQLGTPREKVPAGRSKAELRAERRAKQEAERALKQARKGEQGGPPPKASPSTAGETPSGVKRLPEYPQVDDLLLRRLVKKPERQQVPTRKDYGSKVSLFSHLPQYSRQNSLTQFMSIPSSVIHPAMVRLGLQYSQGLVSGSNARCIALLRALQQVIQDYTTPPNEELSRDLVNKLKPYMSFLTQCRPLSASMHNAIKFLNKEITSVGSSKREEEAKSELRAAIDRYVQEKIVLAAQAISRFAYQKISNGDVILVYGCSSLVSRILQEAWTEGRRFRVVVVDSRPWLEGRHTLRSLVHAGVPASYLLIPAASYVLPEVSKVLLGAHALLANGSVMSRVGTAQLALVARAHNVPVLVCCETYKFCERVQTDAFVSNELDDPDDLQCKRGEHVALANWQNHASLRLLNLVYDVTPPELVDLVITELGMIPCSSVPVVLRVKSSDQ
UniProt P07099: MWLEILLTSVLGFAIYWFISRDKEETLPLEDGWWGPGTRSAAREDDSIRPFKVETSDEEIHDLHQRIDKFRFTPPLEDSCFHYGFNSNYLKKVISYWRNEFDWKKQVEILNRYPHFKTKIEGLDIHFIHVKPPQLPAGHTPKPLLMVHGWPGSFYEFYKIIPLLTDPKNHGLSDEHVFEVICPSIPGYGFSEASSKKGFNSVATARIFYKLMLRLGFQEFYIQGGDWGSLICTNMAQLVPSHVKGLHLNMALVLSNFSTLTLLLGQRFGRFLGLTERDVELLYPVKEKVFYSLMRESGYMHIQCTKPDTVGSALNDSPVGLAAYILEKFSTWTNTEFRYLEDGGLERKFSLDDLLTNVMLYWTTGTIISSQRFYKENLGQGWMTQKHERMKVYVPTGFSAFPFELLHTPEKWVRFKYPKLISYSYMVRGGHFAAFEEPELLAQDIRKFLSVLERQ
UniProt Q96RQ1: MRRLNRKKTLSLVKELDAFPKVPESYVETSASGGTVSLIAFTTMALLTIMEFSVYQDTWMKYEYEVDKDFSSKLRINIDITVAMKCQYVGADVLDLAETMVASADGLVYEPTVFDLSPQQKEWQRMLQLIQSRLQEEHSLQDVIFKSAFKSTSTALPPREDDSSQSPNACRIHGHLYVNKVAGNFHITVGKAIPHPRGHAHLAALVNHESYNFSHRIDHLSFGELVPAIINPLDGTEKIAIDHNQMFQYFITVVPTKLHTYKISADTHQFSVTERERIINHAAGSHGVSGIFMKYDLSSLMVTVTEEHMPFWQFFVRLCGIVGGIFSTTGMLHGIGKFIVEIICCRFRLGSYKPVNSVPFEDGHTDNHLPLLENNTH
UniProt Q14152, whole entry, looked up: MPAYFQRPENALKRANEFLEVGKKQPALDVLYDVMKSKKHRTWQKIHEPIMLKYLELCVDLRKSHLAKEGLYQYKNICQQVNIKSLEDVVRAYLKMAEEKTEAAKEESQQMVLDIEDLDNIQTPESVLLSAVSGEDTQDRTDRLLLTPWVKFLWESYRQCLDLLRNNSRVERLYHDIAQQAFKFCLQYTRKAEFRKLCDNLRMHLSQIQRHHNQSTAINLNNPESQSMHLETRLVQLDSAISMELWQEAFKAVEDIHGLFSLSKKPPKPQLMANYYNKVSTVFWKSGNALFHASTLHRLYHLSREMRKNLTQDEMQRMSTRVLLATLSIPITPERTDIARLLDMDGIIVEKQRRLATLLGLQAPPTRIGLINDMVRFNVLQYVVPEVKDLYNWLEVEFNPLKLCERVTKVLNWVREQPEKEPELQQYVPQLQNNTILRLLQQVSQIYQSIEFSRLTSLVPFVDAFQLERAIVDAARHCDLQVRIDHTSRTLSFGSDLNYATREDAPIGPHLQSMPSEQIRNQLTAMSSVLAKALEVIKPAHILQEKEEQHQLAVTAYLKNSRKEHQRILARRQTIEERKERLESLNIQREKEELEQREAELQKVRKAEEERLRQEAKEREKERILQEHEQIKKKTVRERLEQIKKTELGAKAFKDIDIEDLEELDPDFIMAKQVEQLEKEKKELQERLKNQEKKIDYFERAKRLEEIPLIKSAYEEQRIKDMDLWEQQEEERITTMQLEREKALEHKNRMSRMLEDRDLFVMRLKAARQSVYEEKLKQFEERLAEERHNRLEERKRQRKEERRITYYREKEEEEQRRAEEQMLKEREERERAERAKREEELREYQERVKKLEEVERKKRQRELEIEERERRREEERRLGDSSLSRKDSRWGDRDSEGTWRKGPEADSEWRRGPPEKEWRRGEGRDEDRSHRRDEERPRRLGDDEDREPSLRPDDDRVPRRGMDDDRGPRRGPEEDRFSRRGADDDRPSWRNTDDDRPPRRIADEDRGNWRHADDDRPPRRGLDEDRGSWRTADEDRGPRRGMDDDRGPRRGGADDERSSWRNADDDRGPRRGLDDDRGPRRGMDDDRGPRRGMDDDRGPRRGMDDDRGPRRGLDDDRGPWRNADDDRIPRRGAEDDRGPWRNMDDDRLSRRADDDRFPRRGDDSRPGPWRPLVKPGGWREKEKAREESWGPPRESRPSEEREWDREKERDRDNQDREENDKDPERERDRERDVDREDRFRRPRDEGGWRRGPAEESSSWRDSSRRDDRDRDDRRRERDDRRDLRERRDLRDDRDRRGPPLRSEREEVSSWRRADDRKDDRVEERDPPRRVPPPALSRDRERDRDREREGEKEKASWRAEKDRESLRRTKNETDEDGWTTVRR
UniProt Q8TE02: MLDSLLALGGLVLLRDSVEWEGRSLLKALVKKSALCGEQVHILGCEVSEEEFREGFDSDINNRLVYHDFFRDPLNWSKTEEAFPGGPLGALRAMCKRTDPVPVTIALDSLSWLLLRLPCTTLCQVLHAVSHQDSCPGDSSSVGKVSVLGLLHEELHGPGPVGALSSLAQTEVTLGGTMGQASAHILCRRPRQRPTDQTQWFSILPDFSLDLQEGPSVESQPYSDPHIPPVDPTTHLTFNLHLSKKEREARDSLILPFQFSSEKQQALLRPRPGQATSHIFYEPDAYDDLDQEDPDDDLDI
UniProt P54852: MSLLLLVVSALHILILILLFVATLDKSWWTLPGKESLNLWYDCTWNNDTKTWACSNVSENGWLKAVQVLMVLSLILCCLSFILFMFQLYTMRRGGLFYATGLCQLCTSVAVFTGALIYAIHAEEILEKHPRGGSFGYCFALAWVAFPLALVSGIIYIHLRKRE
UniProt Q13144, whole entry, looked up: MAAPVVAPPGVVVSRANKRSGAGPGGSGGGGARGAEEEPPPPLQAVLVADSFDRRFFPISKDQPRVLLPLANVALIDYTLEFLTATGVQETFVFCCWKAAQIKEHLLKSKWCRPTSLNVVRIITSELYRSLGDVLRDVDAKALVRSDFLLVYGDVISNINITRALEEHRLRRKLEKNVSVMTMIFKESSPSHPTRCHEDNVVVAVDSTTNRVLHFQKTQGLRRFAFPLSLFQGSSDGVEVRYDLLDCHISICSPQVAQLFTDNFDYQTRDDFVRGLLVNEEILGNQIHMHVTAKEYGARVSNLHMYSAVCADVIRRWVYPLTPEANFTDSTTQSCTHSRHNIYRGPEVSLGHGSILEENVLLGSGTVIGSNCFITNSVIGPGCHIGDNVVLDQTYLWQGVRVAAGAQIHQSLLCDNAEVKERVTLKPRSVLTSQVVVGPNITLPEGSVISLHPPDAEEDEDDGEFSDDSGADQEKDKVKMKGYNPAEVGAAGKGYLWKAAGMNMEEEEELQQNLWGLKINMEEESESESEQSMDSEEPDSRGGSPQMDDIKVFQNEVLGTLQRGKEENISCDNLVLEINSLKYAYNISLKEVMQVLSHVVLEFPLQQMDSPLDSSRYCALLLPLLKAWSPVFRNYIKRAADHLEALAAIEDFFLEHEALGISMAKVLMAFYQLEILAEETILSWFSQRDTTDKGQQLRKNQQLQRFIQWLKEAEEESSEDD
UniProt Q5J8M3, whole entry, looked up: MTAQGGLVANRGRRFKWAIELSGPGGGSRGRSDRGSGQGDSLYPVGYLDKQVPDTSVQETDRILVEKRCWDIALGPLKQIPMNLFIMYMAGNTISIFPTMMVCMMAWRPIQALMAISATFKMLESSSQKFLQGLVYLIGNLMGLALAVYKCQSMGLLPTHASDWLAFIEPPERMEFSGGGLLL
UniProt Q13347, whole entry, looked up: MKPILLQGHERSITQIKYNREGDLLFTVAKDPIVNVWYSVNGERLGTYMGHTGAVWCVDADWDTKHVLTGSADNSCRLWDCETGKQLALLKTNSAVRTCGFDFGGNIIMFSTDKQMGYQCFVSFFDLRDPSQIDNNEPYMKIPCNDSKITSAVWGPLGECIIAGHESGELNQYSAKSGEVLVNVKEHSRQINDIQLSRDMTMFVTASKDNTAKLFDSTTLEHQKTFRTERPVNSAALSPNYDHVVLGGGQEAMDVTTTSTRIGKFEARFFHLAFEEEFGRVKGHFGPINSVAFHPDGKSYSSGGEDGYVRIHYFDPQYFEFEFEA

What follows are targets tested with Cn1cc(-c2ccc3c(c2)CCN3C(=O)Cc2cccc(C(F)(F)F)c2)c2c(N)ncnc21 (assay: log2 fold change, soluble protein after heating vs DMSO (PISA); higher = thermal stabilisation; K562 lysate, 10 uM; active = over 0.2 and 3.5 SD of the protein, either way, in both replicates (recomputed)).
Procedure, shortened: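 Quantification was by TMTpro 16plex LC-MS/MS with equalised channel sums, applied to the supernatant after 21,000xg for 90 min. Samples were crude K562 extract at 1 mg/mL protein in PBS pH 7.4 with 1 mM MgCl2, treated with 10 μM compound for 30 min, heated for 3 min across 48°C-58°C, pooled and brought to 0.5% NP-40 at 4°C. Values are log-two fold changes in thermal stability relative to solvent controls, from duplicates.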

log2 fold change, inactive:
EPN1 (UniProt Q9Y6I3) -0.002
EMC3 (UniProt Q9P0I2) 0.03
EIF3K (UniProt Q9UBQ5) -0.003
EMC1 (UniProt Q8N766) 0.009
EMC10 (UniProt Q5UCC4) -0.046
ELP4 (UniProt Q96EB1) 0.006
EPB41L2 (UniProt O43491) -0.011
EIF2B4 (UniProt Q9UI10) -0.022
EPHX1 (UniProt P07099) 0.023
ERGIC2 (UniProt Q96RQ1) 0.06
ERBIN isoform 8 (UniProt Q96RT1) 0.018
EIF3A (UniProt Q14152) -0.01
ELP1 (UniProt O95163) 0.006
ELP5 isoform 4 (UniProt Q8TE02) 0.022
EMP3 (UniProt P54852) -0.046
ELOB (UniProt Q15370) -0.06
EIF2B5 (UniProt Q13144) 0.01
ELAC2 (UniProt Q9BQ52) -0.062
ERCC6L (UniProt Q2NKX8) 0.022
EPS15L1 isoform 2 (UniProt Q9UBC2) -0.009
EMC4 (UniProt Q5J8M3) 0.018
EIF3I (UniProt Q13347) 0.044
EIF3C (UniProt Q99613) 0.038

Quoted from the entries so far for reference:
log2 fold change, inactive:
ERCC6L (UniProt Q2NKX8) 0.022
EPS15L1 isoform 2 (UniProt Q9UBC2) -0.009
